Literature values, collected in publication PMC8470770, “Characterization of a Primate Blood-Brain Barrier Co-Culture Model Prepared from Primary Brain Endothelial Cells, Pericytes and Astrocytes” (Pharmaceutics, 2021).

Parameters: method as in PMID 22906709
Conditions: cited from earlier work

CC(C)NCC(O)COc1ccc(CC(N)=O)cc1 (stereo not shown) [Atenolol]
Mouse In Vivo Papp: 0.23 ×10⁻⁶ cm/s
